Experimental data: PubChem BioAssay AID504834 (National Center for Advancing Translational Sciences (NCATS), 2011)
The whole screen tested about 320,000 compounds, of which about 22,000 (6.9%) were called active. This list was built around the results that the source calls inconclusive (neither active nor inactive); the mix of calls is not that of the screen. Calls come from the whole dose curve; as a rule, active = well fitted inhibition curve with a large enough effect; inconclusive = small, poorly fitted or top-dose-only effect, or another doubt; inactive = no such curve, though single readings can be large or run the other way. Potencies of inconclusive entries are doubtful fits and often do not repeat.

Assay: Primary qHTS for delayed death inhibitors of the malarial parasite plastid, 96 hour incubation
Conditions: P. falciparum luciferase reporter growth; series mostly up to 28.7 µM; activity change, negative = inhibition: at the top concentration
Method in brief: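 Readout is luminescence from an integrated firefly luciferase in P. falciparum. Red cells, 2% hematocrit and 0.05% parasitemia final, were cultured with compound through two parasite generations (96 hours) at 37 C, 5% CO2.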
% is set by controls: 0 for no effect and ±100 for the full control effect; potency is the fitted concentration of half-maximal effect.

| SMILES | Potency | activity change, negative = inhibition |
| --- | --- | --- |
| CCC(C)[C@H](NC(=O)N1c2ccccc2NC(=O)[C@@H]1C(C)C)C(=O)N[C@@H](Cc1ccccc1)C(=O)O (some centres not stated) | inconclusive: 10.4 µM [inhibitor, partial curve, poor fit] |  |
| O=C(NC1CCCc2ccccc21)C1CCN(S(=O)(=O)c2ccccc2F)CC1 (configuration not stated) | inconclusive: 18.5 µM [inhibitor, single point] |  |
| C/C(=N\NC(=O)CNC(=O)C(c1ccccc1)c1ccccc1)c1ccccc1 |  | inactive: 6.93% |
| COC(=O)[C@@]12CCCCN1[C@H](c1ccc(-c3cccc(Cl)c3)c(OC)c1)[C@@H]1C(=O)N(C)C(=O)[C@@H]12 | active: 7.38 µM |  |
| CCOC(=O)C(=CNc1cc(C)ccc1-n1cccc1)C(=O)OCC | inconclusive: 11.7 µM [inhibitor, single point] |  |
| CC1CC(C)CN(CCCNC(=O)COc2cc(=O)n(C)c3ccccc23)C1 (configuration not stated) |  | inactive: -5.31% |
| Cc1cc(C)c(NS(=O)(=O)c2c(C)noc2C)c(C)c1 | inconclusive: 8.28 µM [inhibitor, partial curve] |  |
| Cc1noc(C)c1CSc1nnc(-c2ccncc2)n1-c1ccc(Cl)c(Cl)c1 | inconclusive: 18.5 µM [inhibitor, single point] |  |
| COc1cc(NC(=O)CCS(=O)(=O)c2nc(-c3cccs3)cc(C(F)(F)F)n2)cc(OC)c1OC |  | inactive: 0% |
| CC(=O)c1ccc(OCCCC(=O)N2CCN(S(=O)(=O)c3ccc(C)cc3C)CC2)cc1 | inconclusive: 4.65 µM [inhibitor, partial curve] |  |
| CC(C)CCN(C)C1CCN(C(=O)Nc2c(F)cccc2F)CC1 | inconclusive: 11.7 µM [inhibitor, partial curve] |  |
| O=C(CCOc1ccccc1)Nc1ccc([N+](=O)[O-])cc1 |  | inactive: 0% |
| O=C(Oc1ccc(-c2nnco2)cc1)c1ccc(F)c(S(=O)(=O)N2CCOCC2)c1 |  | inactive: -11.3% |
| Cc1ccc(S(=O)(=O)N2CCN(C(=O)c3cccs3)CC2)cc1 |  | inactive: 22.6% |
| O=C(O)CCc1nc2ccccc2n(CCc2ccccc2)c1=O |  | inactive: 6.11% |
| COc1ccccc1C(c1nnnn1CCc1ccccc1)N1CCN(c2ccccc2)CC1 (configuration not stated) | inconclusive: 0.0329 µM [inhibitor, full curve, poor fit] |  |
| COc1ccc(C)cc1NC(=O)CNc1ccc(C(C)=O)cc1 | inconclusive: 13.1 µM [inhibitor, single point] |  |
| COc1cc(C(=S)N2CCOCC2)ccc1OC(=O)/C=C/c1ccco1 | inconclusive: 10.4 µM [inhibitor, single point] |  |
| c1ccc2c(c1)oc1c(NCc3ccc4c(c3)OCO4)ncnc12 |  | inactive: -15.5% |
| Cn1c(SCC(=O)Nc2ccccc2F)nnc1-c1cccnc1 | inconclusive: 9.28 µM [inhibitor, single point] |  |
| COc1ccc(CNC(=O)c2c(F)c(F)c(F)c(F)c2F)cc1 | inconclusive: 18.5 µM [inhibitor, single point] |  |
| COP(=O)(/C=C(\Cl)c1ccccc1)/C=C(\Cl)c1ccccc1 |  | inactive: -3.33% |
| Cn1nnnc1SC(C(=O)Nc1ccc(F)cc1)c1ccccc1 (configuration not stated) |  | inactive: 1.38% |
| CC(C)CNC(=O)c1ccc(Cl)c(N)c1 |  | inactive: 17.6% |

| SMILES | Potency | activity change, negative = inhibition |
| --- | --- | --- |
| CCOC(=O)c1c(NC(=O)COC(=O)CC(NC(C)=O)c2ccccc2)sc(C(=O)NC)c1C (configuration not stated) | inconclusive: 8.28 µM [inhibitor, partial curve, poor fit] |  |
| COc1ccc(NC(=O)c2cc3ccccc3o2)cc1OC | inconclusive: 18.5 µM [inhibitor, single point] |  |
| COc1ccc(NC(=O)CN(C)C(=O)c2cccc(S(=O)(=O)N3CCN(c4ccccc4)CC3)c2)cc1 | inconclusive: 13.1 µM [inhibitor, partial curve, poor fit] |  |
| CCS(=O)(=O)Nc1cccc(C(=C2CCCCC2)c2cnc[nH]2)c1 | inconclusive: 18.5 µM [inhibitor, single point] |  |
| CCCOc1ccc(C(=O)c2ccccc2C(=O)O)cc1OCCC | inconclusive: 0.828 µM [inhibitor, full curve] |  |
| CC(NC(=O)COc1ccccc1)C(c1ccccc1)N1CCN(C)CC1 (configuration not stated) | inconclusive: 18.5 µM [inhibitor, single point] |  |
| CN(C)S(=O)(=O)Oc1ccsc1C(=O)Nc1ccccc1Cl |  | inactive: 5.64% |
| O=C(CCN1C(=O)c2ccccc2C1=O)Nc1ccc(-c2cn3ccsc3n2)cc1 | inconclusive: 2.62 µM [inhibitor, full curve, poor fit] |  |
| CC(=O)Nc1ccc(OCC(=O)NC(C)c2ccc(F)cc2)cc1 (configuration not stated) |  | inactive: 2.9% |
| CCOc1ccc(-c2cc(NC(=O)Cn3ncc4c3-c3ccccc3OC4)on2)cc1OCC | inconclusive: 9.28 µM [inhibitor, partial curve] |  |
| O=[N+]([O-])c1ccccc1Oc1ccc(S(=O)(=O)N2CCOCC2)cc1 | inconclusive: 5.86 µM [inhibitor, partial curve, poor fit] |  |
| NC(=O)CC(NC(=O)Cc1cccc2ccccc12)c1ccc(NCCc2ccc(F)cc2)c([N+](=O)[O-])c1 (configuration not stated) |  | inactive: 1.93% |
| O=[N+]([O-])c1cc(Cl)ccc1NCCNS(=O)(=O)c1ccccc1 | inconclusive: 5.22 µM [inhibitor, partial curve] |  |
| O=C(CSc1nnc(-c2ccccn2)o1)Nc1cccc(Cl)c1 |  | inactive: 84.5% |
| Cc1ccc(C2(c3ccccc3)NC(=O)N(CC(=O)N3CC(=O)Nc4ccccc43)C2=O)cc1C (configuration not stated) | active: 3.7 µM |  |
| CCCCOc1ccc(C)cc1CN(CCO)CCO |  | inactive: 3.47% |
| Cc1cc(C(=O)Nc2ncc(C)s2)c2ccccc2n1 |  | inactive: 6.71% |
| O=c1c(-c2ccco2)[n+]([O-])c2ccccc2n1OCc1ccccc1 | inconclusive: 14.7 µM [inhibitor, partial curve, poor fit] |  |
| NC(=O)c1ccc(OCC(F)(F)F)nc1 |  | inactive: 51% |
| O=C(CSC(=S)N1CCOCC1)c1cc2ccccc2oc1=O | inconclusive: 9.28 µM [inhibitor, single point] |  |
| Cc1ccccc1OCC(=O)NC(=S)Nc1cccc2cc(O)ccc12 |  | inactive: 32.9% |
| COc1ccc(CNC(=O)OCCN2CCN(Cc3ccccc3)CCC2=O)cc1 | inconclusive: 20.8 µM [inhibitor, single point] |  |
| COc1ccc(N2CCN(C(CNS(=O)(=O)c3ccc4c(c3)OCCO4)c3ccco3)CC2)cc1 (configuration not stated) | inconclusive: 18.5 µM [inhibitor, single point] |  |
| COc1cccc(CN2CC(C(=O)NCc3ccc(C)o3)CCC2=O)c1 (configuration not stated) |  | inactive: 0.464% |

Ordered by molecular weight (smallest number first): part of the list above

| SMILES | Potency | activity change, negative = inhibition |
| --- | --- | --- |
| NC(=O)c1ccc(OCC(F)(F)F)nc1 |  | inactive: 51% |
| CCS(=O)(=O)Nc1cccc(C(=C2CCCCC2)c2cnc[nH]2)c1 | inconclusive: 18.5 µM [inhibitor, single point] |  |
| Cc1ccccc1OCC(=O)NC(=S)Nc1cccc2cc(O)ccc12 |  | inactive: 32.9% |

Next part

| SMILES | Potency | activity change, negative = inhibition |
| --- | --- | --- |
| Cc1ccc(F)cc1NC(=O)CSc1ncccn1 |  | inactive: -2.61% |
| O=C(C1CCCO1)N1CCN(C(=S)Nc2cc(F)cc(F)c2)CC1 (configuration not stated) |  | inactive: -15.5% |
| Cn1nc(C(=O)NCc2ccccc2)cc1C(=O)NCc1ccccc1 | inconclusive: 18.5 µM [inhibitor, single point] |  |
| CC(NC(=O)OC(C)(C)C)C(=O)NC(CCC(=O)OCc1ccccc1)C(N)=O (configuration not stated) |  | inactive: -21.9% |
| CC1=C(C(=O)N2CCCCC2)C2(CCC(C)CC2)OC1=O (configuration not stated) | inconclusive: 18.5 µM [inhibitor, single point] |  |
| Cc1cccc(NC(=O)C(C)Sc2nc3ccccc3c(=O)n2CCCN2CCOCC2)c1 (configuration not stated) | active: 8.28 µM |  |
| CCCn1c(NCc2ccccc2NS(=O)(=O)c2ccc(C)cc2)nc2ccccc21 |  | inactive: 33.5% |
| COC(=O)C1CCN(CC(=O)Nc2ccc(OC)c(Cl)c2)CC1 | inconclusive: 18.5 µM [inhibitor, single point] |  |
| O=C(NCC1CCCO1)C(c1cccs1)N(Cc1ccccc1Cl)C(=O)c1ccc(-c2ccccc2)[nH]1 (configuration not stated) |  | inactive: 18.6% |
| CCOC(=O)c1ccc(CNC(=O)Cn2nnc(-c3ccccc3F)n2)o1 | inconclusive: 0.147 µM [inhibitor, full curve, poor fit] |  |
| CC(C)(C)C1CCC(C(=O)Nc2ccccc2N2CCOCC2)CC1 (configuration not stated) | inconclusive: 18.5 µM [inhibitor, single point] |  |
| COc1cccc(NC(=O)CSc2nccn2-c2cccc(OC)c2)c1 | active: 11.7 µM |  |
| Cc1ccc(N2CC(C(=O)NC3CCC(C)CC3)CC2=O)cc1 (configuration not stated) | inconclusive: 14.7 µM [inhibitor, single point] |  |
| Cn1c2c(c(=O)n(C)c1=O)CN(CCCN1CCOCC1)CN2 | inconclusive: 14.7 µM [inhibitor, single point] |  |
| CCOc1ccccc1OC(=O)c1cc2ccccc2oc1=O | inconclusive: 0.738 µM [inhibitor, partial curve, poor fit] |  |
| CCOc1ccc(NC(=O)CN(C)C(=O)c2ccccc2CCc2ccccc2)cc1OCC | inconclusive: 9.28 µM [inhibitor, partial curve] |  |
| CC(=O)Nc1ccc(S(=O)(=O)NCCC(=O)N2CCCCC2)cc1 |  | inactive: 7.59% |
| CCOc1cc(/C=C(\C#N)c2nc(-c3cccs3)c(NC(C)=O)s2)ccc1O | inconclusive: 18.5 µM [inhibitor, single point] |  |
| CSc1nccc(-c2nn(-c3ccc(C)cc3)ccc2=O)n1 | inconclusive: 10.4 µM [inhibitor, single point] |  |
| COC(=O)CNC(=O)C(Cc1ccccc1)NS(=O)(=O)c1ccc2c(c1)c(=O)n(C)c(=O)n2C (configuration not stated) | inconclusive: 0.185 µM [inhibitor, full curve, poor fit] |  |
| CCOc1ccc(Nc2nc3ccccc3n3nnnc23)cc1 | inconclusive: 2.33 µM [inhibitor, partial curve] |  |
| CCCC(C)C(=O)NCc1ccccc1OC (configuration not stated) |  | inactive: 2.79% |
| C/C(=N\NC(=O)c1ccccc1)C1C2C=CC(C2)C1(C)C (configuration not stated) | inconclusive: 16.5 µM [inhibitor, single point] |  |
| COc1ccc(S(=O)(=O)N2CCC(C(=O)NCCC3=CCCCC3)CC2)cc1C | inconclusive: 18.5 µM [inhibitor, single point] |  |
